Where “and” joins values, the source holds several entries; their conditions need not be identical. Identical values can stand only once. The list shows a part of the results. For some assays here: Construct or isoform of the protein are uncertain.

Sequences of proteins named here, by UniProt entry; tags and fusion partners are left off. A change or cut given only in a name is not applied to a line headed by its entry.
UniProt P14625, whole entry: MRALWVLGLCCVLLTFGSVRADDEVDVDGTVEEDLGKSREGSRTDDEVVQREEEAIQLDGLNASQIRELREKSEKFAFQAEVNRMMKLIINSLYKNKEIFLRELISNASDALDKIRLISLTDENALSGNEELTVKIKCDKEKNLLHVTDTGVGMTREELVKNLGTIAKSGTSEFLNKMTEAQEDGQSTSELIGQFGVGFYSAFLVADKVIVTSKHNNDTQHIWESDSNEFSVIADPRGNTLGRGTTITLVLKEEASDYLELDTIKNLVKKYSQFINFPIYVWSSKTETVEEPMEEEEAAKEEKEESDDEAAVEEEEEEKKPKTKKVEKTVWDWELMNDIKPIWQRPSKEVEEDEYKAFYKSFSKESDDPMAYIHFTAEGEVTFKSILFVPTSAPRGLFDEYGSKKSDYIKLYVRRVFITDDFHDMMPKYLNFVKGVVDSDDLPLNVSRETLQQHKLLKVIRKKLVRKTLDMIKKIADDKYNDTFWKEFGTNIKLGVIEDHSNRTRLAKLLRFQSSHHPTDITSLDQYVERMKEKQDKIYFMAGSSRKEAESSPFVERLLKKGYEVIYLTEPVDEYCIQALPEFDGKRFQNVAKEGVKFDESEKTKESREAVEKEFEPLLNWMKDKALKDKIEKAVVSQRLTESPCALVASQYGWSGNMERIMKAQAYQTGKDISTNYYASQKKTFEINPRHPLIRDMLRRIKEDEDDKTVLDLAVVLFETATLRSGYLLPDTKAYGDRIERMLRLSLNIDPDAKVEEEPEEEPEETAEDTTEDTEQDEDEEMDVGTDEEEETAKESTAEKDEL
UniProt P38646: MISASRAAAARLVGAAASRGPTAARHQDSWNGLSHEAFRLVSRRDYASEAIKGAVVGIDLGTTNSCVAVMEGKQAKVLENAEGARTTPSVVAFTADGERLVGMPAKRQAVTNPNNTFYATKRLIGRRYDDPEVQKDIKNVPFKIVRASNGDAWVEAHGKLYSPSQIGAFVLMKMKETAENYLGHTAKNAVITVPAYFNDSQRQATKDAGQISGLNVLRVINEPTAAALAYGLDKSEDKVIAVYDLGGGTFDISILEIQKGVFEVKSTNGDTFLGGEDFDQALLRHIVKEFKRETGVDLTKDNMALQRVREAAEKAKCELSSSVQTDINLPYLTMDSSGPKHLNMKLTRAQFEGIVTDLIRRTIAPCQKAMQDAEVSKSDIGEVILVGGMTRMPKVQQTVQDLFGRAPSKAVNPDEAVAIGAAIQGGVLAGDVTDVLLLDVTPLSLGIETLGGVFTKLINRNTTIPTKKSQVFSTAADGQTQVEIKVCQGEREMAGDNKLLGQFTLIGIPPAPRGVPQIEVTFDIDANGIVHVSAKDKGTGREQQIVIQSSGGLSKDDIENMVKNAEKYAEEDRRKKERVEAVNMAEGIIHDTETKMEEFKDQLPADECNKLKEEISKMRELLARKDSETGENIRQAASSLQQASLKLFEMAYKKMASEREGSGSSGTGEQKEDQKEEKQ
UniProt Q9BUP3: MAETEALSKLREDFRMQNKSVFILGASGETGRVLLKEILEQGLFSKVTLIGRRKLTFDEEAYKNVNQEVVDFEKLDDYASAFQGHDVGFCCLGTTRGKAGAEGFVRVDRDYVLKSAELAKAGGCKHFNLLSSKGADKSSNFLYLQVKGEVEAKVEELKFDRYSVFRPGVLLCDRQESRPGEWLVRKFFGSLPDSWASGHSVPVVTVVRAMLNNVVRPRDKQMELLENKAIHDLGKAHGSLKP

Targets include HSP90B1 (UniProt P14625); HSPA9 (UniProt P38646); HTATIP2 (UniProt Q9BUP3).
Common to all, as to experiment: protein microarray (ProtoArray v5.0), streptavidin-Alexa Fluor 647
Holding throughout (details): 3'-biotin; 20 mM Tris (pH 7.5), 5 mM MgCl2, 100 mM KCl, 0.1% Tween-20, A/T-rich and random oligonucleotide blockers; temperature not stated; high values mean tight binding

The target in a further assay is T1, HP1BP3 (UniProt Q5SSJ5).
T1 sequence: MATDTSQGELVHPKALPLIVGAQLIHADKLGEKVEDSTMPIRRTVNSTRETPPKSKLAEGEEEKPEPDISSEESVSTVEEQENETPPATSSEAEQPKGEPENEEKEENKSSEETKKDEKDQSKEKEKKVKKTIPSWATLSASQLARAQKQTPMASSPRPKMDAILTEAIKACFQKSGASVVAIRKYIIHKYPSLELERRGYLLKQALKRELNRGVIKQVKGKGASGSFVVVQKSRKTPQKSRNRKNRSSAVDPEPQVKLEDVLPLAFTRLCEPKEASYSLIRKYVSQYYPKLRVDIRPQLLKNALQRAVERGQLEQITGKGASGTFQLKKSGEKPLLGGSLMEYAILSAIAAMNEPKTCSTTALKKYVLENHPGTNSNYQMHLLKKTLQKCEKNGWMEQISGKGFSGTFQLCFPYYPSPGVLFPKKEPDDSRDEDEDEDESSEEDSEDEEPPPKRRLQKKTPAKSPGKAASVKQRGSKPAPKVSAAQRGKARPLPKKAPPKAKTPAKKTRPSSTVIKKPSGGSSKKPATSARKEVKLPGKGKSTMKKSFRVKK

The subject of a further assay is HPCAL1 (human).
In a further assay the test system is HPGD (human).
A further assay concerns HS2ST1 (human).
For a further assay, the system named is HS3ST1 (human).
In the next assay the test system is HSBP1 (human).
A further assay deals with HSD11B1 (human).
Another assay deals with HSD3B2 (human).
Another assay concerns HSPA4 (human).
Another assay has as its system HSPBP1 (human).
Another assay deals with HSPC111 (human).
A further assay deals with HSPC142 (human).
A further assay concerns HYPK (human).
The test system of assay [1] is Hematopoietic lineage cell-specific protein (human).
Assay [2] concerns Hemoglobin subunit mu (human).
In assay [3] the test system is Hexaprenyldihydroxybenzoate methyltransferase, mitochondrial (human).
The next assay relates to Hexokinase-3 (human).

In the case of “GGGGACAGGGGTATGGGGAGGGG [G4-3 biotinylated (CtG)]”, the binding signal with HP1BP3 is 6.82 z-score; with HPCAL1 (human) it was -0.336 z-score; in the assay with HPGD (human), -0.328 z-score; with HS2ST1 (human) it was -0.318 z-score; in the assay on HS3ST1 (human) it was -0.304 z-score and -0.33 z-score; with HSBP1 (human), -0.322 z-score. Further, the binding signal was -0.318 z-score in the assay with HSD11B1 (human); -0.322 z-score with HSD3B2 (human); -0.303 z-score in the assay with HSP90B1; -0.299 z-score in the assay with HSPA4 (human); -0.325 z-score in the assay with HSPA9; -0.339 z-score in the assay with HSPBP1 (human). Besides, the binding signal in the assay on HSPC111 (human) was 9.11 z-score; in the assay with HSPC142 (human) it was -0.335 z-score; with HTATIP2, -0.318 z-score; in the assay on HYPK (human) it was -0.333 z-score; in assay [1], -0.315 z-score; in assay [2] it was -0.341 z-score. The results for the binding signal (in assay [3]; in the assay with Hexokinase-3 (human)) were -0.342 z-score and -0.328 z-score, respectively.

For the origin of these results see publication PMC5996148.
